These are yes or no findings as the source states them, for the method shown. Binding seen in cells or lysates may run through a third protein. Some entries that bind do so weakly or less than the wild type. Sequences can lack the tags named with a protein.
Molecular target: T1, soluble colony-stimulating factor 1 receptor (sCSF1R-HA-2A) (mouse) (UniProt P09581)
T1 sequence: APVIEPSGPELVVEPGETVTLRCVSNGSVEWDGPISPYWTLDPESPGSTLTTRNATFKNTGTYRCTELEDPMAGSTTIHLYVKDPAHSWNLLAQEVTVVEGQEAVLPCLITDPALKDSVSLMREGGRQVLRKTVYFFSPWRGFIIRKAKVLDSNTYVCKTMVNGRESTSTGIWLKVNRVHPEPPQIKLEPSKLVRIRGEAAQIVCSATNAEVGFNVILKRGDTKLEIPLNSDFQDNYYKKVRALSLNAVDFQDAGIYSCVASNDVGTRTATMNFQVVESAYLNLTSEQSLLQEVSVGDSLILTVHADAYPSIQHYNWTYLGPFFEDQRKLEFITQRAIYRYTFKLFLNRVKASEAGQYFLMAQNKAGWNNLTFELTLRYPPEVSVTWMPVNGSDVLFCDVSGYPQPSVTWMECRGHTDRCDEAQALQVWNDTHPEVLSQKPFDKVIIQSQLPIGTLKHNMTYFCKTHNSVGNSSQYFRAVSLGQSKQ
Test: co-IP

B1: recombinant murine CSF1 (ligand, UniProt P07141 33-492)
chain: KEVSEHCSHMIGNGHLKVLQQLIDSQMETSCQIAFEFVDQEQLDDPVCYLKKAFFLVQDIIDETMRFKDNTPNANATERLQELSNNLNSCFTKDYEEQNKACVRTFHETPLQLLEKIKNFFNETKNLLEKDWNIFTKNCNNSFAKCSSRDVVTKPDCNCLYPKATPSSDPASASPHQPPAPSMAPLAGLAWDDSQRTEGSSLLPSELPLRIEDPGSAKQRPPRSTCQTLESTEQPNHGDRLTEDSQPHPSAGGPVPGVEDILESSLGTNWVLEEASGEASEGFLTQEAKFSPSTPVGGSIQAETDRPRALSASPFPKSTEDQKPVDITDRPLTEVNPMRPIGQTQNNTPEKTDGTSTLREDHQEPGSPHIATPNPQRVSNSATPVAQLLLPKSHSWGIVLPLGELEGKRSTRDRRSPAELEGGSASEGAARPVARFNSIPLTDTGHVEQHEGSSDPQIPE
- binding: binds
